Test results taken from the supplement of paper PMC10470496.
Structures can show the parent of a compound that is named as a salt. This is one part of the list. Single values are uncertain, as repeats are few or missing.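 The strains were three CDC resistance-bank clinical C. auris isolates from clades III, IV and I, cultured in RPMI-1640 at 35°C. Growth was background-corrected OD600 versus vehicle-only wells on the same plate. A hit needed >50% inhibition in two or more strains plus a plate-corrected B-score exceeding 0.1.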

Test system: C. auris AR-384
Assay: growth relative to vehicle control (OD600 ratio) (fraction); higher = less inhibition
Settings: 1 µM; 24 h

Row | Structure (SMILES) | growth
1 | CCOc1cc2ncc(C#N)c(Nc3ccc(OCc4ccccn4)c(Cl)c3)c2cc1NC(=O)/C=C/CN(C)C [Neratinib (HKI-272)] | 0.92
2 | CC(=O)Oc1ccccc1C(=O)O [Aspirin] | 0.94
3 | Cc1ccnc2c1NC(=O)c1cccnc1N2C1CC1 [Nevirapine] | 0.83
4 | O=C(O)c1ccc(-n2nc(-c3ccccc3O)nc2-c2ccccc2O)cc1 [Deferasirox] | 0.94
5 | CC(C(=O)O)c1ccc(C(=O)c2cccs2)cc1 (stereo not given) [Suprofen] | 0.66
6 | NC(=O)N1c2ccccc2C=Cc2ccccc21 [Carbamazepine] | 0.8
7 | NC(=O)c1cccc2cn(-c3ccc([C@@H]4CCCNC4)cc3)nc12 [Niraparib (MK-4827)] | 1.33
8 | COc1cc2nc(N(C)CCCNC(=O)C3CCCO3)nc(N)c2cc1OC (stereo not given) [Alfuzosin HCl] | 0.95
9 | CCn1cc(C(=O)O)c(=O)c2cc(F)c(N3CCNCC3)cc21 [Norfloxacin] | 1.16
10 | COc1nc(C)cnc1NS(=O)(=O)c1cccnc1-c1ccc(-c2nnco2)cc1 [Zibotentan (ZD4054)] | 0.64
11 | Cc1nc2n(c(=O)c1CCN1CCC(c3noc4cc(F)ccc34)CC1)CCCC2 [Risperidone] | 0.83
12 | O=C1O[C@H]([C@@H](O)CO)C(O)=C1O [Vitamin C] | 0.9
13 | CC(=O)Oc1cc2c(s1)CCN(C(C(=O)C1CC1)c1ccccc1F)C2 (stereo not given) [Prasugrel Hydrochloride] | 0.82
14 | CN(C)[C@@H](CCOc1cccc2ccccc12)c1ccccc1 [Dapoxetine HCl] | 1.05
15 | O=C(O)C1(C(=O)O)CCC1.[NH2-].[NH2-].[Pt+2] [Carboplatin] | 0.71
16 | COc1cc(N)c(Cl)cc1C(=O)NC1CCN(CCCOc2ccc(F)cc2)CC1OC (stereo not given) [Cisapride hydrate] | 0.82
17 | CC(=O)O[C@]1(C(C)=O)CC[C@H]2[C@@H]3C[C@H](C)C4=CC(=O)CC[C@]4(C)[C@H]3CC[C@@]21C [Medroxyprogesterone acetate] | 1.17
18 | O=C1C(O)=C([C@H]2CC[C@H](c3ccc(Cl)cc3)CC2)C(=O)c2ccccc21 [Atovaquone] | 1.05

An excerpt of these results, as labelled records:
Cc1ccnc2c1NC(=O)c1cccnc1N2C1CC1 [Nevirapine]
  growth: 0.83
O=C(O)c1ccc(-n2nc(-c3ccccc3O)nc2-c2ccccc2O)cc1 [Deferasirox]
  growth: 0.94
CC(C(=O)O)c1ccc(C(=O)c2cccs2)cc1 (stereo not given) [Suprofen]
  growth: 0.66

(further entries)

Row | Structure (SMILES) | growth
19 | COc1ccccc1Oc1c(NS(=O)(=O)c2ccc(C(C)(C)C)cc2)nc(-c2ncccn2)nc1OCCO [Bosentan Hydrate] | 1.01
20 | N=C(N)NCCC[C@H](N)C(=O)O [L-Arginine HCl (L-Arg)] | 0.9
21 | CC(C)Cc1ccc(C(C)C(=O)O)cc1 (stereo not given) [Ibuprofen Lysine] | 1.19
22 | COc1ccc2cc([C@H](C)C(=O)O)ccc2c1 [Naproxen Sodium] | 0.85
23 | Cc1cccc(-c2nn3c(c2-c2ccnc4ccc(C(N)=O)cc24)CCC3)n1 | 0.96
24 | COc1ccc(C(=O)c2ccccc2)c(O)c1 [Oxybenzone] | 0.67
25 | CO/N=C(\C(=O)N[C@@H]1C(=O)N2C(C(=O)OCOC(=O)C(C)(C)C)=C(/C=C\c3scnc3C)CS[C@H]12)c1csc(N)n1 [Cefditoren Pivoxil] | 1.27
26 | CC(C(=O)O)c1cccc(Oc2ccccc2)c1 (stereo not given) [Fenoprofen Calcium] | 1.17
27 | NC(=O)c1cnccn1 [Pyrazinamide] | 0.77
28 | CSc1nc2cc(Cl)c(Oc3cccc(Cl)c3Cl)cc2[nH]1 [Triclabendazole] | 0.77
29 | Cn1nnc2c(C(N)=O)ncn2c1=O [Temozolomide] | 0.95
30 | CCCSc1ccc2[nH]c(NC(=O)OC)nc2c1 [Albendazole] | 0.68
31 | CC(=O)O[C@]1(C(C)=O)CC[C@H]2[C@@H]3C[C@H](C)C4=CC(=O)C=C[C@]4(C)[C@@]3(F)[C@@H](O)C[C@@]21C [Fluorometholone Acetate] | 1.05
32 | CC(C)CCCCC(=O)N[C@@H](CCN)C(=O)N[C@H](C(=O)N[C@@H](CCN)C(=O)N[C@H]1CCNC(=O)[C@H]([C@@H](C)O)NC(=O)[C@H](CCN)NC(=O)[C@H](CCN)NC(=O)[C@H](CC(C)C)NC(=O)[C@@H](Cc2ccccc2)NC(=O)[C@H](CCN)NC1=O)[C@@H](C)O [Polymyxin B sulphate] | 0.69
33 | NCCc1c[nH]cn1 [Histamine 2HCl] | 0.63
34 | O=c1[nH]c(=O)n([C@H]2C[C@H](O)[C@@H](CO)O2)cc1F [Floxuridine] | 0.99
35 | N[C@@H](Cc1cc(I)c(Oc2cc(I)c(O)c(I)c2)c(I)c1)C(=O)O [L-Thyroxine] | 1.11
